Test results as given in article PMC3470569.
These are yes or no findings as the source states them, for the method shown. Tags and fused reporters may be left off the sequences shown.

How the values were obtained:
[1] = molecular target: T1, A(205-224) (S. cerevisiae) (UniProt P17255); assay: peptide or protein array; 20-mer peptides linked at their C-terminal end to cellulose and spotted in duplicate on glass slides; blocked in 2% nonfat milk; purified probe at 4 µM in TBS for 1 hour at 4°C; bound probe detected through MBP or FLAG with HRP-coupled antibody (chemiluminescence); hits by ANOVA (p 0.05, Bonferroni) and HCL in MeV, score of at least 1 in 75% of the spots; both purified
T1 sequence (peptide, C-terminal end linked to cellulose): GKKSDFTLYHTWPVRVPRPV

[2] = molecular target: T2, H(221-240) (S. cerevisiae) (UniProt P41807); assay: as above
T2 sequence (peptide, C-terminal end linked to cellulose): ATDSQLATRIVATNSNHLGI

binding [1]: no binding (tested: 4 µM)
binding [2]: no binding (tested: 4 µM)
B1: full-length subunit H (Vma13p), N-terminal MBP fusion (protein, UniProt P41807 1-478)
chain: MGATKILMDSTHFNEIRSIIRSRSVAWDALARSEELSEIDASTAKALESILVKKNIGDGLSSSNNAHSGFKVNGKTLIPLIHLLSTSDNEDCKKSVQNLIAELLSSDKYGDDTVKFFQEDPKQLEQLFDVSLKGDFQTVLISGFNVVSLLVQNGLHNVKLVEKLLKNNNLINILQNIEQMDTCYVCIRLLQELAVIPEYRDVIWLHEKKFMPTLFKILQRATDSQLATRIVATNSNHLGIQLQYHSLLLIWLLTFNPVFANELVQKYLSDFLDLLKLVKITIKEKVSRLCISIILQCCSTRVKQHKKVIKQLLLLGNALPTVQSLSERKYSDEELRQDISNLKEILENEYQELTSFDEYVAELDSKLLCWSPPHVDNGFWSDNIDEFKKDNYKIFRQLIELLQAKVRNGDVNAKQEKIIIQVALNDITHVVELLPESIDVLDKTGGKADIMELLNHSDSRVKYEALKATQAIIGYTFK
